Laboratory results as given in paper doi:10.1101/2022.09.20.508727.
Read-outs that look alike come from different tables or passages of the source. Results are given in words; binding and its absence hold for the method and conditions named. Binding seen in cells or lysates may run through a third protein. Some entries that bind do so weakly or less than the wild type.

The chains behind the UniProt entries cited, without tags or fusion partners. Residues count along the entry.
UniProt P0ACF0: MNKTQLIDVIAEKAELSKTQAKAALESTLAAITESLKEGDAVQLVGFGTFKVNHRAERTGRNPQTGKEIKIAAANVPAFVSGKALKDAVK
UniProt P0ABB0: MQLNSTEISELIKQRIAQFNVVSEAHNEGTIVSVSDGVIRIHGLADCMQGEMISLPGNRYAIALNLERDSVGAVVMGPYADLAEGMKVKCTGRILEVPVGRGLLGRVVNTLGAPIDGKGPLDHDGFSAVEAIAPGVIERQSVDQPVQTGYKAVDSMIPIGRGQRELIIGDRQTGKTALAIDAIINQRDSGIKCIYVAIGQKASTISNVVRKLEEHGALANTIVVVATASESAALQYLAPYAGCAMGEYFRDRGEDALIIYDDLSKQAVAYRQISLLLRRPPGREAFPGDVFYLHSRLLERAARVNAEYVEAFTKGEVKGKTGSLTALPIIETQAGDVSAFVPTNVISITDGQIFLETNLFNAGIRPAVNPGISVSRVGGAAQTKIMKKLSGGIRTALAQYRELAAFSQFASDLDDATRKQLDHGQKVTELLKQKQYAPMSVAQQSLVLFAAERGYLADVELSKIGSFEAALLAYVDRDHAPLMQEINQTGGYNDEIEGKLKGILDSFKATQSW
UniProt P0A6Z3: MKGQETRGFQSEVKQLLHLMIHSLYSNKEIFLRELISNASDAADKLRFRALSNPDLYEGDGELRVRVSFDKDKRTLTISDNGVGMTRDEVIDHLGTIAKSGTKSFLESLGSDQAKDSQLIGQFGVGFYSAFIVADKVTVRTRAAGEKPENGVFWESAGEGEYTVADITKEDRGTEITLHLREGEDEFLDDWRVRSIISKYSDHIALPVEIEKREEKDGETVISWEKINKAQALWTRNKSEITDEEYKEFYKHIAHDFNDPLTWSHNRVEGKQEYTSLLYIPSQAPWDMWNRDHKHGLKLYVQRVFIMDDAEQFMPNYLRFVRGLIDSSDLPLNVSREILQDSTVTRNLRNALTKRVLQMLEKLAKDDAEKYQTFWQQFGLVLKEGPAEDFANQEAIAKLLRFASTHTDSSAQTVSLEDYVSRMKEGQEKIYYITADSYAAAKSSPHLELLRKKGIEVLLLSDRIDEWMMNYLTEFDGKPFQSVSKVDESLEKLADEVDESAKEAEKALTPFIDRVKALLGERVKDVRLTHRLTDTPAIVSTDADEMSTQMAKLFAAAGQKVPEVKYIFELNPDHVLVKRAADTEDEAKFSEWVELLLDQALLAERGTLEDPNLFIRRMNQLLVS
UniProt P69783: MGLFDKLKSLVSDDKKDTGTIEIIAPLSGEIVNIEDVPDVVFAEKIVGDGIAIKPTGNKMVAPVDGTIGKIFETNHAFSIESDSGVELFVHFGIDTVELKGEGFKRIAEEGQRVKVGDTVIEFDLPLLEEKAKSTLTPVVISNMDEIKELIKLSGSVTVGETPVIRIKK
UniProt P06959: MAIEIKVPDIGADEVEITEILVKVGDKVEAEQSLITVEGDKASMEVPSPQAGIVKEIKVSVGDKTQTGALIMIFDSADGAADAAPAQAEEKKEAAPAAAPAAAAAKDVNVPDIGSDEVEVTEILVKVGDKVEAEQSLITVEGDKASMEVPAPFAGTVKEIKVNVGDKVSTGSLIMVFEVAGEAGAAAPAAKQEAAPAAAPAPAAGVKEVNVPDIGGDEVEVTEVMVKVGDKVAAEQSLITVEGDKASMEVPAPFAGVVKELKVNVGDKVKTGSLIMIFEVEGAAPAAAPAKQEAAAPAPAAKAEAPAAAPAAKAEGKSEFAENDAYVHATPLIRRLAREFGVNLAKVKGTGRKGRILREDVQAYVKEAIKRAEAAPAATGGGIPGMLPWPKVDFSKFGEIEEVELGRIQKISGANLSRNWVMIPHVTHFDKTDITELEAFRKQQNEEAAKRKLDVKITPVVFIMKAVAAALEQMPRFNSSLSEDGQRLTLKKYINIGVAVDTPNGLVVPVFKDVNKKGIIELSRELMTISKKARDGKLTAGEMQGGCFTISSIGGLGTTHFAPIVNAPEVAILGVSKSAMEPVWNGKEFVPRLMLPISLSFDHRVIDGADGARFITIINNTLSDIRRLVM
UniProt P00959: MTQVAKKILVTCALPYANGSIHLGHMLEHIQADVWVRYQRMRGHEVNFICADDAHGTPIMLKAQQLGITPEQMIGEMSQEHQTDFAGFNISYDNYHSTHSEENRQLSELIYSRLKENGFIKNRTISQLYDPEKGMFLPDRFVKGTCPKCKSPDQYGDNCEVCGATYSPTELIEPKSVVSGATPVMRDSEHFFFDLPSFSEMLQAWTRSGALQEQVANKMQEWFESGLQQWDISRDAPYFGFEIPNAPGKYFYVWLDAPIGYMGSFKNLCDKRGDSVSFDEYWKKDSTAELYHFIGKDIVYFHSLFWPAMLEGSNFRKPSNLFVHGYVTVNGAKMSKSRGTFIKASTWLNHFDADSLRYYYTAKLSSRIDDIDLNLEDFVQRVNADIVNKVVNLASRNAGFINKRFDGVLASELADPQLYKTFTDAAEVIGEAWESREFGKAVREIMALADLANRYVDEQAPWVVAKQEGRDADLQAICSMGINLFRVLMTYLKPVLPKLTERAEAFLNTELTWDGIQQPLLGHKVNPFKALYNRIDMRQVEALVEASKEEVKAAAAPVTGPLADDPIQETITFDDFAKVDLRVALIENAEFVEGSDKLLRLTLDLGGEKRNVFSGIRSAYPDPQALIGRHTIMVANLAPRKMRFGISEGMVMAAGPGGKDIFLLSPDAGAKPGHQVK
UniProt P0ABA0: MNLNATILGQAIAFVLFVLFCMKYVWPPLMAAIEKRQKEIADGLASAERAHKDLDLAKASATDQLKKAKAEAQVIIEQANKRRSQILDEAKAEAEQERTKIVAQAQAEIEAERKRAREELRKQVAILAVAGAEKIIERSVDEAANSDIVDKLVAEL
UniProt P0A6M8: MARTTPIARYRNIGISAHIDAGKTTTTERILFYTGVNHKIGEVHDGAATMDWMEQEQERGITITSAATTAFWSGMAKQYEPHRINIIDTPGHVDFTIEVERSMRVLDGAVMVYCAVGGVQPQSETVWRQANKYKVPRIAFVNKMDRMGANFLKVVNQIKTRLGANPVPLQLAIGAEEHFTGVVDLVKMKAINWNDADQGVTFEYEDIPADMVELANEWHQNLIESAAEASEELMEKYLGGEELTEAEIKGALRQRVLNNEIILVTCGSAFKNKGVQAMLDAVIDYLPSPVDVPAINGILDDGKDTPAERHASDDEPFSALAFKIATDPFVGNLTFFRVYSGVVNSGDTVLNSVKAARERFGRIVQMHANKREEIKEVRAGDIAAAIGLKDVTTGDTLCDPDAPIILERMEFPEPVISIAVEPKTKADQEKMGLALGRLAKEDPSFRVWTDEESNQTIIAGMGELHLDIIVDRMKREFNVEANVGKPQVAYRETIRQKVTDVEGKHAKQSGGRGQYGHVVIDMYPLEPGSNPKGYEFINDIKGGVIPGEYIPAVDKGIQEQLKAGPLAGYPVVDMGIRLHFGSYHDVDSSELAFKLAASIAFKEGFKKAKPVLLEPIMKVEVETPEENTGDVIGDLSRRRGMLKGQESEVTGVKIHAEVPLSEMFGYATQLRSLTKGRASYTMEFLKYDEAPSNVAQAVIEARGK
UniProt P0ABZ6, residues 21-428: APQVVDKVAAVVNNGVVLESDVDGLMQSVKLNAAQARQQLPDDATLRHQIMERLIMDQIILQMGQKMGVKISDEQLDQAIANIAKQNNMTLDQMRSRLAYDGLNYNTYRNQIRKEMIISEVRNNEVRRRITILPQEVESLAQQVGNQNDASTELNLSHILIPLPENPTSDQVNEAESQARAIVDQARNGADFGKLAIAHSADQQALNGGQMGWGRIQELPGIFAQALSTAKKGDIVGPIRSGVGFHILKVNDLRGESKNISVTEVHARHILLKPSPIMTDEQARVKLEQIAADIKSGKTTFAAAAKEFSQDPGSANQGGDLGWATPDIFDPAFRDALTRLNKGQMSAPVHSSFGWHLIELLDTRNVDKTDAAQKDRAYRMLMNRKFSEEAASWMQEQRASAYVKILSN
UniProt P0A8M3: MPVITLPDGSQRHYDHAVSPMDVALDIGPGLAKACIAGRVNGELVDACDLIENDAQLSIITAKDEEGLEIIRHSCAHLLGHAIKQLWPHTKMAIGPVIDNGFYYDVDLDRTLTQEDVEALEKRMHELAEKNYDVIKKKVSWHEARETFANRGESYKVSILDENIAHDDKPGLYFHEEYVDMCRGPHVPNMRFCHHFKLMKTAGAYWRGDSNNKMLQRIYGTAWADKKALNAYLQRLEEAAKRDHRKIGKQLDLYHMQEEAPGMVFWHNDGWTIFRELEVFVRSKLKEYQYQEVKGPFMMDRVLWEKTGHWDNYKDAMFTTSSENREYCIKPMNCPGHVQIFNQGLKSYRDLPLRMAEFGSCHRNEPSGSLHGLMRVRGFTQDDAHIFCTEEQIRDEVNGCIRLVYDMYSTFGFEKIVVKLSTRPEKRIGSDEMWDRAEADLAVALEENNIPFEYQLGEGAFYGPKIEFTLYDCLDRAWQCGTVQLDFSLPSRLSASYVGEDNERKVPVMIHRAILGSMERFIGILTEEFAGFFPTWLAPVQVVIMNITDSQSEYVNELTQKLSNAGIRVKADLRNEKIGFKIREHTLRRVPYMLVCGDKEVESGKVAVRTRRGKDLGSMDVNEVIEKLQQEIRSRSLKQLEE

What was measured:
Assay in all cases: cross-linking
[1] = molecular target: RplL (E. coli (endogenous in K12 MG1655)) (UniProt P0A7K2)
[2] = molecular target: HupA (E. coli (endogenous in K12 MG1655)) (UniProt P0ACF0)
[3] = molecular target: AtpA (E. coli (endogenous in K12 MG1655)) (UniProt P0ABB0)
[4] = molecular target: E. coli chaperone, HtpG (Hsp90) (E. coli (endogenous in K12 MG1655)) (UniProt P0A6Z3)
[5] = molecular target: T1, ModE (E. coli (endogenous in K12 MG1655)) (UniProt P0A9G8)
T1 sequence: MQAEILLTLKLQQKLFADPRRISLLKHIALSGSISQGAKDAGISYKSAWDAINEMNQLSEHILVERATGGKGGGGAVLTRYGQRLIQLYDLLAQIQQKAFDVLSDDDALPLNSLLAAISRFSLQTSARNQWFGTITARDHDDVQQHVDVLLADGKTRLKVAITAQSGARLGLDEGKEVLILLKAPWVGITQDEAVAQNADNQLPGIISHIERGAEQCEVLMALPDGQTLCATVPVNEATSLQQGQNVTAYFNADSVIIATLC

[6] = molecular target: Crr (E. coli (endogenous in K12 MG1655)) (UniProt P69783)
[7] = molecular target: T2, Pgk (E. coli (endogenous in K12 MG1655)) (UniProt P0A799)
T2 sequence: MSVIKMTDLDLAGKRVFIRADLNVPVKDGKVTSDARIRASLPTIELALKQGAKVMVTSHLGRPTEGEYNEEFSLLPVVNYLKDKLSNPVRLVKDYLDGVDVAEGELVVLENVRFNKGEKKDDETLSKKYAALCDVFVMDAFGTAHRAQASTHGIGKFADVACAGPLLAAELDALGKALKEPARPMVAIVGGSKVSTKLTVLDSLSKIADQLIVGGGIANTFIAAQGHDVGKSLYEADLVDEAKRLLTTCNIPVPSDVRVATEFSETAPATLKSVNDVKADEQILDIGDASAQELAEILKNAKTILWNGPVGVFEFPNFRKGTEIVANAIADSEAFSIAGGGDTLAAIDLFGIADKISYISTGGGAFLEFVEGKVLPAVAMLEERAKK

[8] = molecular target: pyruvate dehydrogenase (AceF) (E. coli (endogenous in K12 MG1655)) (UniProt P06959)
[9] = molecular target: RplL (E. coli (endogenous in K12 MG1655)) (UniProt P0A7K2); remark: listed apart in the source
[10] = molecular target: TrpS (E. coli (endogenous in K12 MG1655)) (UniProt P00954)

co-translational chaperone DnaK (Hsp70) (from UniProt P0A6Y8 1-638)
binding [1]: binds

aminoacyl-tRNA synthetase MetG (from UniProt P00959 1-677) (enzyme)
binding [1]: binds

NusA (from UniProt P0AFF6 1-495)
binding [2]: binds

AtpF (from UniProt P0ABA0 1-156)
binding [3]: binds

GTPase elongation factor EF-G (FusA) (from UniProt P0A6M8 1-704)
binding [1]: binds

periplasmic chaperone, SurA (from UniProt P0ABZ6 21-428)
binding [4]: binds

aminoacyl-tRNA synthetase ThrS (from UniProt P0A8M3 1-642) (enzyme)
binding [1]: binds

B1: SsuB (protein, UniProt P0AAI1 1-255)
chain: MNTARLNQGTPLLLNAVSKHYAENIVLNQLDLHIPAGQFVAVVGRSGGGKSTLLRLLAGLETPTAGDVLAGTTPLAEIQEDTRMMFQDARLLPWKSVIDNVGLGLKGQWRDAARRALAAVGLENRAGEWPAALSGGQKQRVALARALIHRPGLLLLDEPLGALDALTRLEMQDLIVSLWQEHGFTVLLVTHDVSEAVAMADRVLLIEEGKIGLDLTVDIPRPRRLGSVRLAELEAEVLQRVMQRGESETRLRKQG
binding [5]: binds

B2: SelA (protein, UniProt P0A821 1-463)
chain: MTTETRSLYSQLPAIDRLLRDSSFLSLRDTYGHTRVVELLRQMLDEAREVIRGSQTLPAWCENWAQEVDARLTKEAQSALRPVINLTGTVLHTNLGRALQAEAAVEAVAQAMRSPVTLEYDLDDAGRGHRDRALAQLLCRITGAEDACIVNNNAAAVLLMLAATASGKEVVVSRGELVEIGGAFRIPDVMRQAGCTLHEVGTTNRTHANDYRQAVNENTALLMKVHTSNYSIQGFTKAIDEAELVALGKELDVPVVTDLGSGSLVDLSQYGLPKEPMPQELIAAGVSLVSFSGDKLLGGPQAGIIVGKKEMIARLQSHPLKRALRADKMTLAALEATLRLYLHPEALSEKLPTLRLLTRSAEVIQIQAQRLQAPLAAHYGAEFAVQVMPCLSQIGSGSLPVDRLPSAALTFTPHDGRGSHLESLAARWRELPVPVIGRIYDGRLWLDLRCLEDEQRFLEMLLK
binding [6]: binds

B3: LafU (protein, UniProt Q47154 1-211)
chain: MAVPEETEKKARDVNEKTALLKKKSATELGELATSINTIARDAHMEANLEMEIVPQGLRVLIKDDQNRNMFERGSAKIMPFFKTLLVELAPVFDSLDNKIIITGHTDAMAYKNNIYNNWNLSGDRALSARRVLEEAGMPEDKVMQVSAMADQMLLDSKNPQSAGNRRIEIMVLTKSASDTLYQYFGQHGDKVVQPLVQKLDKQQVLSQRTR
binding [7]: binds

B4: zinc-binding dehydrogenase, YdjJ (protein, UniProt P77280 1-347)
chain: MKNSKAILQVPGTMKIISAEIPVPKEDEVLIKVEYVGICGSDVHGFESGPFIPPKDPNQEIGLGHECAGTVVAVGSRVRKFKPGDRVNIEPGVPCGHCRYCLEGKYNICPDVDFMATQPNYRGALTHYLCHPESFTYKLPDNMDTMEGALVEPAAVGMHAAMLADVKPGKKIIILGAGCIGLMTLQACKCLGATEIAVVDVLEKRLAMAEQLGATVVINGAKEDTIARCQQFTEDMGADIVFETAGSAVTVKQAPYLVMRGGKIMIVGTVPGDSAINFLKINREVTIQTVFRYANRYPVTIEAISSGRFDVKSMVTHIYDYRDVQQAFEESVNNKRDIIKGVIKISD
binding [8]: binds

B5: KpLE2 phage-like protein, YjhV (protein, UniProt Q47719 1-137)
chain: MVGYHQTNQKTDTGKTLTRRPVLVDHNRLPEGSRGRLAVAVAGDHPAAVQVTMTLVNDTGFDPVFSGSIAESWRQQPCTPSYCCDWEAATMLRAFPLAKKGEGRARLPSLYASFGKLGETPTHEDIIDNNRSINWPV
binding [8]: binds

B6: carbon-nitrogen hydrolase family protein, YobB (protein, UniProt P76280 1-218)
chain: MSFWKVAAAQYEPRKTSLTEQVAHHLEFVRAAARQQCQLLVFPSLSLLGCDYSRRALPAPPDLSLLDPLCYAATTWRMTIIAGLPVEYNDRFIRGIAVFAPWRKTPGIYHQSHGACLGRRSRTITVVDEQPQGMDMDPTCSLFTTGQCLGEPDLLASARRLQFFSHQYSIAVLMANARGNSALWDEYGRLIVRADRGSLLLVGQRSSQGWQGDIIPLR
binding [8]: binds

B7: methyltransferase RsmG (enzyme, UniProt P0A6U5 1-207)
chain: MLNKLSLLLKDAGISLTDHQKNQLIAYVNMLHKWNKAYNLTSVRDPNEMLVRHILDSIVVAPYLQGERFIDVGTGPGLPGIPLSIVRPEAHFTLLDSLGKRVRFLRQVQHELKLENIEPVQSRVEEFPSEPPFDGVISRAFASLNDMVSWCHHLPGEQGRFYALKGQMPEDEIALLPEEYQVESVVKLQVPALDGERHLVVIKANKI
binding [9]: binds

B8: Pgk (protein, UniProt P0A799 1-387)
chain: MSVIKMTDLDLAGKRVFIRADLNVPVKDGKVTSDARIRASLPTIELALKQGAKVMVTSHLGRPTEGEYNEEFSLLPVVNYLKDKLSNPVRLVKDYLDGVDVAEGELVVLENVRFNKGEKKDDETLSKKYAALCDVFVMDAFGTAHRAQASTHGIGKFADVACAGPLLAAELDALGKALKEPARPMVAIVGGSKVSTKLTVLDSLSKIADQLIVGGGIANTFIAAQGHDVGKSLYEADLVDEAKRLLTTCNIPVPSDVRVATEFSETAPATLKSVNDVKADEQILDIGDASAQELAEILKNAKTILWNGPVGVFEFPNFRKGTEIVANAIADSEAFSIAGGGDTLAAIDLFGIADKISYISTGGGAFLEFVEGKVLPAVAMLEERAKK
binding [10]: binds

B9: methyltransferase RlmI (enzyme, UniProt P75876 1-396)
chain: MSVRLVLAKGREKSLLRRHPWVFSGAVARMEGKASLGETIDIVDHQGKWLARGAYSPASQIRARVWTFDPSESIDIAFFSRRLQQAQKWRDWLAQKDGLDSYRLIAGESDGLPGITIDRFGNFLVLQLLSAGAEYQRAALISALQTLYPECSIYDRSDVAVRKKEGMELTQGPVTGELPPALLPIEEHGMKLLVDIQHGHKTGYYLDQRDSRLATRRYVENKRVLNCFSYTGGFAVSALMGGCSQVVSVDTSQEALDIARQNVELNKLDLSKAEFVRDDVFKLLRTYRDRGEKFDVIVMDPPKFVENKSQLMGACRGYKDINMLAIQLLNEGGILLTFSCSGLMTSDLFQKIIADAAIDAGRDVQFIEQFRQAADHPVIATYPEGLYLKGFACRVM
binding [9]: binds

B10: lipoate synthase (LipA) (enzyme, UniProt P60716 1-321)
chain: MSKPIVMERGVKYRDADKMALIPVKNVATEREALLRKPEWMKIKLPADSTRIQGIKAAMRKNGLHSVCEEASCPNLAECFNHGTATFMILGAICTRRCPFCDVAHGRPVAPDANEPVKLAQTIADMALRYVVITSVDRDDLRDGGAQHFADCITAIREKSPQIKIETLVPDFRGRMDRALDILTATPPDVFNHNLENVPRIYRQVRPGADYNWSLKLLERFKEAHPEIPTKSGLMVGLGETNEEIIEVMRDLRRHGVTMLTLGQYLQPSRHHLPVQRYVSPDEFDEMKAEALAMGFTHAACGPFVRSSYHADLQAKGMEVK
binding [8]: binds

B11: phosphoglycerate dehydrogenase (SerA) (enzyme, UniProt P0A9T0 1-410)
chain: MAKVSLEKDKIKFLLVEGVHQKALESLRAAGYTNIEFHKGALDDEQLKESIRDAHFIGLRSRTHLTEDVINAAEKLVAIGCFCIGTNQVDLDAAAKRGIPVFNAPFSNTRSVAELVIGELLLLLRGVPEANAKAHRGVWNKLAAGSFEARGKKLGIIGYGHIGTQLGILAESLGMYVYFYDIENKLPLGNATQVQHLSDLLNMSDVVSLHVPENPSTKNMMGAKEISLMKPGSLLINASRGTVVDIPALCDALASKHLAGAAIDVFPTEPATNSDPFTSPLCEFDNVLLTPHIGGSTQEAQENIGLEVAGKLIKYSDNGSTLSAVNFPEVSLPLHGGRRLMHIHENRPGVLTALNKIFAEQGVNIAAQYLQTSAQMGYVVIDIEADEDVAEKALQAMKAIPGTIRARLLY
binding [8]: binds

B12: YgeH (protein, UniProt P76639 1-458)
chain: MDLENKFSYHFLEGLTLTEDGILTQGNEQVYIPQKELGVLIVLLESAGHVVLKDMIIESVWKNIIVSDESLTRCIYSLRCIFEKIGYDRCIETIYRKGYRFSGQVFKTKINEDNTSDYSIAIFPFTTSLNTLDPLILNQELVQIISNKKIDGLYTYPMAATNFCNDHISQNSFLSRFKPDYFVTGRINQNNAVNTLYIELIDAKNLFLIASNHLPVDELHNTSQFIIDNILQTVHKPERSVRLAKQDQGYKNHYLSDEMLAGKKELYDFTPESIYRAMTIFDRLQNKSDIQTLKTECYCLLAECHMSLALHGKSELELAAQKALELLDYVSDITTVDGKILAIMGLITGLSGQAKVSHILFEQAKIHSTDIASLYYYRALVHFHNEKIEEARICIDKSLQLEPRRRKAVVIKECVDMYVPNPLKNNIKLYYKETESESHRVIIDNILKLKQLTRICMR
binding [9]: binds
